From publication PMC6468040
No constants are given. Whether binding was seen depends on the method and setting. Binding seen in cells or lysates may run through a third protein. Some entries that bind do so weakly or less than the wild type. Tags and fused reporters may be left off the sequences shown.

Protein sequences, listed by entry. Tags and fused reporters are not part of them.
UniProt Q13131: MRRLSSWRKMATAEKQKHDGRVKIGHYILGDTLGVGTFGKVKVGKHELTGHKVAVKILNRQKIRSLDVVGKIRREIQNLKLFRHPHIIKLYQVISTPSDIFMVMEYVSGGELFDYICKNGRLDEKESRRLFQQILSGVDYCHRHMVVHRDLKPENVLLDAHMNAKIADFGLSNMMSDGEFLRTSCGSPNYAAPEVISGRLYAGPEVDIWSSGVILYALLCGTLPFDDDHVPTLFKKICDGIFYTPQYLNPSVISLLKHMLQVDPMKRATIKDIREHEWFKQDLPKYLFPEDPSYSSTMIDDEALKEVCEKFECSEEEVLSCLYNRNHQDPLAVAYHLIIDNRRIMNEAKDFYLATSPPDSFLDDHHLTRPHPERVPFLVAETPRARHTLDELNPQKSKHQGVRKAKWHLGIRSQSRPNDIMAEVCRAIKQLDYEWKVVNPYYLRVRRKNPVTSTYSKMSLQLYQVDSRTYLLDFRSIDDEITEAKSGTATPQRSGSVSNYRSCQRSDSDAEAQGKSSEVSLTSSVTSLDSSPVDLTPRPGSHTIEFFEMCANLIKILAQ
UniProt P54619: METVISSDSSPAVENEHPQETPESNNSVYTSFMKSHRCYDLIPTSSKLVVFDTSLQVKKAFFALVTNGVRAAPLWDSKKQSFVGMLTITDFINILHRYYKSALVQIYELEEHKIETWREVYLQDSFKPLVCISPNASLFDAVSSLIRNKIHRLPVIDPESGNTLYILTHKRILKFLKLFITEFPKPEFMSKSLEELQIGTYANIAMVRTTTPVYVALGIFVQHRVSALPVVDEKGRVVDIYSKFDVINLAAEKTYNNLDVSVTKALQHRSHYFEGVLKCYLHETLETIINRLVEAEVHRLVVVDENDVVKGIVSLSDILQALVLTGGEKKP

T1: GST-tagged PLIN3 (UniProt O60664)
T1 sequence: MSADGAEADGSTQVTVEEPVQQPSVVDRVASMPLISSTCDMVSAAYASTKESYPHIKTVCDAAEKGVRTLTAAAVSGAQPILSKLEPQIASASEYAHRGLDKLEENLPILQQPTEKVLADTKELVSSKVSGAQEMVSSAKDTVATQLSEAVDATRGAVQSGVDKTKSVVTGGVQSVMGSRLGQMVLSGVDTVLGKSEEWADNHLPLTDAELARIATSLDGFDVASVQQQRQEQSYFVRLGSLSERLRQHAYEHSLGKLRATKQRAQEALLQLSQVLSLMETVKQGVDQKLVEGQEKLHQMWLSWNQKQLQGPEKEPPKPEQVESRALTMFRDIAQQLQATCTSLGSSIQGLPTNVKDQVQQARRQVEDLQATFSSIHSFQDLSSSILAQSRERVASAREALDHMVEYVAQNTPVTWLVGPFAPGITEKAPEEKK


Experiments:
[1] = molecular target: T1, GST-tagged PLIN3; experiment: co-IP; 293T cells co-expressing GST-tagged PLIN3 with LKB1, AMPKα1, AMPKβ2 and AMPKγ1; immunoprecipitation with anti-GST antibodies, western blot with Flag antibodies
[2] = molecular target: YFPn-tagged AMPKα1 (UniProt Q13131); experiment: split reporter; BiFC with halves of Venus YFP: YFPn-AMPKα1 and YFPc-perilipins stably expressed in HTC75 cells; fluorescence detected by flow cytometer; YFPn-AMPKα1 alone as negative control

| binding [1] | binding [2] | Molecule |
| --- | --- | --- |
| – | no binding | YFPc-tagged PLIN4 (protein, UniProt Q96Q06 1-1371) MSAPDEGRRDPPKPKGKTLGSFFGSLPGFSSARNLVANAHSSARARPAADPTGAPAAEAAQPQAQVAAHPEQTAPWTEKELQPSEKMVSGAKDLVCSKMSRAKDAVSSGVASVVDVAKGVVQGGLDTTRSALTGTKEVVSSGVTGAMDMAKGAVQGGLDTSKAVLTGTKDTVSTGLTGAVNVAKGTVQAGVDTTKTVLTGTKDTVTTGVMGAVNLAKGTVQTGVETSKAVLTGTKDAVSTGLTGAVNVARGSIQTGVDTSKTVLTGTKDTVCSGVTGAMNVAKGTIQTGVDTSKTVLTGTKDTVCSGVTGAMNVAKGTIQTGVDTSKTVLTGTKDTVCSGVTGAMNVAKGTIQTGVDTTKTVLTGTKNTVCSGVTGAVNLAKEAIQGGLDTTKSMVMGTKDTMSTGLTGAANVAKGAMQTGLNTTQNIATGTKDTVCSGVTGAMNLARGTIQTGVDTTKIVLTGTKDTVCSGVTGAANVAKGAVQGGLDTTKSVLTGTKDAVSTGLTGAVNVAKGTVQTGVDTTKTVLTGTKDTVCSGVTSAVNVAKGAVQGGLDTTKSVVIGTKDTMSTGLTGAANVAKGAVQTGVDTAKTVLTGTKDTVTTGLVGAVNVAKGTVQTGMDTTKTVLTGTKDTIYSGVTSAVNVAKGAVQTGLKTTQNIATGTKNTFGSGVTSAVNVAKGAAQTGVDTAKTVLTGTKDTVTTGLMGAVNVAKGTVQTSVDTTKTVLTGTKDTVCSGVTGAANVAKGAIQGGLDTTKSVLTGTKDAVSTGLTGAVKLAKGTVQTGMDTTKTVLTGTKDAVCSGVTGAANVAKGAVQMGVDTAKTVLTGTKDTVCSGVTGAANVAKGAVQTGLKTTQNIATGTKNTLGSGVTGAAKVAKGAVQGGLDTTKSVLTGTKDAVSTGLTGAVNLAKGTVQTGVDTSKTVLTGTKDTVCSGVTGAVNVAKGTVQTGVDTAKTVLSGAKDAVTTGVTGAVNVAKGTVQTGVDASKAVLMGTKDTVFSGVTGAMSMAKGAVQGGLDTTKTVLTGTKDAVSAGLMGSGNVATGATHTGLSTFQNWLPSTPATSWGGLTSSRTTDNGGEQTALSPQEAPFSGISTPPDVLSVGPEPAWEAAATTKGLATDVATFTQGAAPGREDTGLLATTHGPEEAPRLAMLQNELEGLGDIFHPMNAEEQAQLAASQPGPKVLSAEQGSYFVRLGDLGPSFRQRAFEHAVSHLQHGQFQARDTLAQLQDCFRLIEKAQQAPEGQPRLDQGSGASAEDAAVQEERDAGVLSRVCGLLRQLHTAYSGLVSSLQGLPAELQQPVGRARHSLCELYGIVASAGSVEELPAERLVQSREGVHQAWQGLEQLLEGLQHNPPLSWLVGPFALPAGGQ |
| – | no binding | YFPc-tagged PLIN5 (protein, UniProt Q00G26 1-463) MSEEEAAQIPRSSVWEQDQQNVVQRVVALPLVRATCTAVCDVYSAAKDRHPLLGSACRLAENCVCGLTTRALDHAQPLLEHLQPQLATMNSLACRGLDKLEEKLPFLQQPSETVVTSAKDVVASSVTGVVDLARRGRRWSVELKRSVSHAVDVVLEKSEELVDHFLPMTEEELAALAAEAEGPEVGSVEDQRRQQGYFVRLGSLSARIRHLAYEHSVGKLRQSKHRAQDTLAQLQETLELIDHMQCGVTPTAPACPGKVHELWGEWGQRPPESRRRSQAELETLVLSRSLTQELQGTVEALESSVRGLPAGAQEKVAEVRRSVDALQTAFADARCFRDVPAAALAEGRGRVAHAHACVDELLELVVQAVPLPWLVGPFAPILVERPEPLPDLADLVDEVIGGPDPRWAHLDWPAQQRAWEAEHRDGSGNGDGDRMGVAGDICEQEPETPSCPVKHTLMPELDF |

Continued, molecule first:

| Molecule | binding [1] | binding [2] |
| --- | --- | --- |
| AMPKγ1 (detected with Flag antibodies) (from UniProt P54619 1-331) | binds | – |
| YFPc-tagged PLIN3 (protein, UniProt O60664 1-434) MSADGAEADGSTQVTVEEPVQQPSVVDRVASMPLISSTCDMVSAAYASTKESYPHIKTVCDAAEKGVRTLTAAAVSGAQPILSKLEPQIASASEYAHRGLDKLEENLPILQQPTEKVLADTKELVSSKVSGAQEMVSSAKDTVATQLSEAVDATRGAVQSGVDKTKSVVTGGVQSVMGSRLGQMVLSGVDTVLGKSEEWADNHLPLTDAELARIATSLDGFDVASVQQQRQEQSYFVRLGSLSERLRQHAYEHSLGKLRATKQRAQEALLQLSQVLSLMETVKQGVDQKLVEGQEKLHQMWLSWNQKQLQGPEKEPPKPEQVESRALTMFRDIAQQLQATCTSLGSSIQGLPTNVKDQVQQARRQVEDLQATFSSIHSFQDLSSSILAQSRERVASAREALDHMVEYVAQNTPVTWLVGPFAPGITEKAPEEKK | – | binds |
